For 28 compounds, Log10OV results are on record in patent US11103435B2, “Malodor reducing compositions” (Givaudan, S.A., priority 2014, dated 2021).

Each structure is given as a SMILES string.

The nature of the data set: Odor Value (log10 OV) of perfume materials: Standard Equilibrium Headspace Concentration / Odor Detection Threshold. The settings on record: common logarithm of Odor Value = headspace concentration (20° C., 1 atmosphere) / Odor Detection Threshold.
In turn, `CC1=CCC(C=CC(C)C(C)O)C1(C)C` (stereo in doubt) [EBANOL] registered a Log10OV of 5.3. With `C=C/C=C/C=C\CCCCC` [(3E,5Z)-undeca-1,3,5-triene] the figure was 6.7; with `CCCCCCCCCC(C)C=O` (stereo not shown) [ALD C12 MNA PUR, 2-methylundecanal], 7.0; with `C=CCOC(=O)COCCC(C)C` [ALLYL AMLY GLYCOLATE, allyl 2-(isopentyloxy)acetate], 5.8. With `CCC(C)C1CCCc2cccnc21` (stereo not shown) [BIGARYL, 8-(sec-butyl)-5,6,7,8-tetrahydroquinoline] the figure was 6.6. Compound `Cc1ccc2c(c1)OCC(=O)CO2` [CALONE 1951, 7-methyl-2H-benzo[b][1,4]dioxepin-3(4H)-one] gave a Log10OV of 6.0. With `C=C(C)C1CC=C(C)C(=O)C1` (stereo not shown) [CARVONE LAEVO, 2-methyl-5-(prop-1-en-2-yl)cyclohex-2-enone] the figure was 5.8. `CC1=CC(C)C(C=O)CC1` (stereo not shown) [CYCLAL C, 2,4-dimethylcyclohex-3-enecarbaldehyde] yielded a Log10OV of 5.9. Regarding `C=CC(C)CCCC(C)(C)O` (stereo not shown) [DIHYDRO MYRCENOL], the Log10OV came to 5.4. With `CC(C)CCCC(C)(C)O` [DIMETOL, 2,6-dimethylheptan-2-ol] the figure was 5.5; with `CC12CCC(CC1)C(C)(C)O2` [EUCALYPTOL COSMOS, (1s,4s)-1,3,3-trimethyl-2-oxabicyclo[2.2.2]octane], 7.0. In the case of `C=CCCC(=O)C1=CC(C)(C)CCC1` [GALBANONE PURE, 1-(3,3-dimethylcyclohex-1-en-1-yl)pent-4-en-1-one] it was 6.6; in that of `CC(=O)/C=C/C1C(C)=CCCC1(C)C` (stereo not drawn) [IRISONE ALPHA, (E)-4-(2,6,6-trimethylcyclohex-2-en-1-yl)but-3-en-2-one], 5.1. With `CC(=O)C1(C)CC2=C(CCCC2(C)C)CC1C` (stereo not shown) [ISO E SUPER] the figure was 4.5; with `CCCCCCC1CCCC1=O` (stereo not shown) [JASMATONE], 4.8; with `C=CC(C)(O)CCC=C(C)C` (stereo not shown) [LINALOL SYNT, 3,7-dimethylocta-1,6-dien-3-ol], 5.8.

The compound `CC(C)=CCCC(C)C=O` (stereo not shown) [MELONAL, 2,6-dimethylhept-5-enal] returned a Log10OV of 6.6. In turn, `CCOc1cc(COC)ccc1O` [METHYL DIANTILIS] displayed a Log10OV of 3.9.

`CC(=O)c1oc2ccccc2c1C` [NEROLIONE, 1-(3-methylbenzofuran-2-yl)ethanone] returned a Log10OV of 7.3.

With `CC1C/C=C/CCCCCCCC(=O)OCC1` (stereo not shown) [NIRVANOLIDE], the Log10OV turned out to be 4.3. With `CC/C=C\CC/C=C/CO` [NONADIENOL-2,6, (2E,6Z)-nona-2,6-dien-1-ol] the figure was 7.1.

With `C=CCCC(=O)C(=C)C1CCCCC1` [PHARAONE 10%/DPG, 2-cyclohexylhepta-1,6-dien-3-one], the Log10OV was 6.2. For `CC1CC(C)(c2ccccc2)CO1` (stereo not shown) [RHUBAFURAN, 2,4-dimethyl-4-phenyltetrahydrofuran], the Log10OV was 5.9. As for `CC(C)=CC1CC(C)CCO1` (stereo not shown) [ROSE OXIDE CO, 4-methyl-2-(2-methylprop-1-en-1-yl)tetrahydro-2H-pyran], the Log10OV is 7.4. With `CCOC(=O)C1=C(C)C=CCC1(C)C` [SAFRANATE ETHYLE, ethyl 2,6,6-trimethylcyclohexa-1,3-diene-1-carboxylate] the figure was 6.2; with `CC=C(CC)CCC(C)CCO` (stereo not shown) [SUPER MUGUET], 4.0. With `COc1ccc(CC2CC2)cc1` [TOSCANOL, 1-(cyclopropylmethyl)-4-methoxybenzene] the figure was 5.7; with `CC1CCC(c2ccccn2)C(C)C1` (stereo not shown) [ZINARINE, 2-(2,4-dimethylcyclohexyl)pyridine], 5.4.
